Measured values published in patent publication US5017558A, “Synthetic vaccine peptide epitomes of hepatitis B surface antigen” (priority 1983, dated 1991).
Not every detail of the peptide structures is certain; ends, links or a residue may be inferred. No end group written: not given here.

Tested on: anti-HBs (#1 from France) antibody
Assay: RIA inhibition (Abbott RIA for antibody to HBsAg, 4 RIA units of anti-HBs)
Assay type: binding, human

Measured: Percent Inhibition of RIA

MENITSGFL [P-9]
0%: protein concentration 0.625 mg/ml | protein concentration 1.25 mg/ml | protein concentration 2.5 mg/ml | protein concentration 5.0 mg/ml | protein concentration 10.0 mg/ml
